# Results from article PMC7819943, “Rice protein-binding microarrays: a tool to detect cis-acting elements near promoter regions in rice”.
# The chains behind the UniProt entries cited, without tags or fusion partners.
# UniProt Q0JBA9, entry or part of it: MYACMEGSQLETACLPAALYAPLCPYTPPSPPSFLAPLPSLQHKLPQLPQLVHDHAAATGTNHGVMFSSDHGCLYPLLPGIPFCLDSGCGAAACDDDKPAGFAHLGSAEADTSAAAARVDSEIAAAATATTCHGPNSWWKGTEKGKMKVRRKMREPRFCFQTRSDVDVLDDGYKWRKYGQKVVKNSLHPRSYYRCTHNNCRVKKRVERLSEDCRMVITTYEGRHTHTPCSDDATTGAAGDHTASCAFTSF
# The list shows a part of the results.
# Biological target: OsWRKY34 (Oryza sativa, UniProt Q0JBA9 1-250)
# Experiment: protein-binding microarray (RPBM); PBS, 2% BSA, 51.3 ng/ul salmon testes DNA, 50 uM zinc acetate, 200 nM TF, 25 C, 1 h; high values mean tight binding
# Settings: protein: recombinant; tags: N-terminal polyhistidine and DsRed monomer fusion (pET32a); label: CyDye5-dUTP incorporated in the synthesized complementary strand; 3' TTTTT single-stranded linker to array surface; dsDNA, one strand shown
# How it was run: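 The binding signal is fluorescence intensity per array feature (arbitrary units). Readings came from an Axon 4000B scanner after a washed, 2% BSA-blocked, double-stranded custom Agilent array had been incubated for 1 h at 25 °C with 200 nM protein and 50 µM zinc acetate. The protein was a Ni–NTA-purified transcription factor fused N-terminally to polyhistidine and DsRed, expressed in E. coli BL21-CodonPlus.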
row,Sequence,binding signal
1,CTTGACTTCTTATTCTATATGCACTCAATATCTTCAAGTTCGGAGTCACCTAGTGCAG,8120 fluorescence intensity (a.u.)
2,GTAATTTATTGTCTATTATGGTTTTTCTTAATTGCTTTTTCGGAGTCACCTAGTGCAG,9890 fluorescence intensity (a.u.)
3,ATCGTATTGGGTTCTTATATGGAAACTTCTTCCAATATTGCGGAGTCACCTAGTGCAG,8180 fluorescence intensity (a.u.)
4,CACCAGGACTTTATTGATTTGTGGCTATCCAAATGTTGGGCGGAGTCACCTAGTGCAG,8210 fluorescence intensity (a.u.)
5,TATATACTCCTACTCTTGCGCCTTTTCTCCTTCGAAATAGCGGAGTCACCTAGTGCAG,8260 fluorescence intensity (a.u.)
6,ACAACACACAAAGGGACAAACACAGATCAGCCGTTCATCTCGGAGTCACCTAGTGCAG,10600 fluorescence intensity (a.u.)
7,CCAACCGATCATAATCCTCCACCATTCACTTTTCCCATATCGGAGTCACCTAGTGCAG,8730 fluorescence intensity (a.u.)
8,ACTTGGGTATGTTTCCACTGAATATATTCTGTTGGAGATCCGGAGTCACCTAGTGCAG,8020 fluorescence intensity (a.u.)
9,CCTTTTTTCCCGATGGCACTAACGCACGTATACATGTTTTCGGAGTCACCTAGTGCAG,9890 fluorescence intensity (a.u.)
10,TCCATGCATGAGCTCTCGTTGTTGCAGCGGTACTGTGTCTCGGAGTCACCTAGTGCAG,9540 fluorescence intensity (a.u.)
11,CAGGACTACCCCTGGCTACGCCCTGTCTTTAACAATATTCCGGAGTCACCTAGTGCAG,8920 fluorescence intensity (a.u.)
12,AGGTGGACTGTTGGTCTATACATACACGTACTTATTCAATCGGAGTCACCTAGTGCAG,8660 fluorescence intensity (a.u.)
13,CAATCTTCCCGACCCAGCAAGCTTCTTCTTCCCTTGGGTCCGGAGTCACCTAGTGCAG,8610 fluorescence intensity (a.u.)
14,CTTACCATCTCCCCAAGCGGGAGAGTGGACGTCATAATTTCGGAGTCACCTAGTGCAG,8220 fluorescence intensity (a.u.)
15,TACATGATCATCTGTTGCAACACACATATACTTGCTTGTACGGAGTCACCTAGTGCAG,8140 fluorescence intensity (a.u.)
16,GACAAATTTAGTATTCTCTGAAATTTCACCACACTTTCCACGGAGTCACCTAGTGCAG,8460 fluorescence intensity (a.u.)
17,GCCGATTCGTTTCATTCACCGGATCTCTTGCGTCCGCCTCCGGAGTCACCTAGTGCAG,9510 fluorescence intensity (a.u.)
18,GCCTTTGTGTCACCCAGCTAGCTAGCCATCGCGCGCGATGCGGAGTCACCTAGTGCAG,8700 fluorescence intensity (a.u.)
19,GGAGGGAGGGTGGGGCGCGCACCTGGCCAACCACTACTCGCGGAGTCACCTAGTGCAG,9900 fluorescence intensity (a.u.)
20,CGCCGACCCGCCGTACATGCTGCCCTCAAACAGCACCTGCCGGAGTCACCTAGTGCAG,8310 fluorescence intensity (a.u.)
21,CATGTCTTGTGTGTGTTTCTATAAGCCTCTATTCCACCAACGGAGTCACCTAGTGCAG,9380 fluorescence intensity (a.u.)

row,Sequence,binding signal
1,TCCATGAGCCACGTGATATACTCTCTGTGTGTGTGTTTGCCGGAGTCACCTAGTGCAG,8590 fluorescence intensity (a.u.)
2,TTTGCAATTTTTTTCCATGGCTATTGCTAACCGAATCGGACGGAGTCACCTAGTGCAG,8320 fluorescence intensity (a.u.)
3,TTGTGATTCTTTTTTTTATGTTTCAACCAATGTATTTTGACGGAGTCACCTAGTGCAG,8160 fluorescence intensity (a.u.)
4,GAATCATATCAATTCTTTTCTTCTTTCTTTTTTTGCGGGGCGGAGTCACCTAGTGCAG,12100 fluorescence intensity (a.u.)
5,AAGAGCACCGCATTTTCTACGCTTTTTCTTTGTTTTTTTTCGGAGTCACCTAGTGCAG,11700 fluorescence intensity (a.u.)
6,GCCGCCGGGCGCGTTCCTCTCACCGTGCGCGCGACTCCTCCGGAGTCACCTAGTGCAG,11100 fluorescence intensity (a.u.)
7,TGGCATTTTTGGCTTTGCTTCTCTTCTCTTCCTTTGCTTTCGGAGTCACCTAGTGCAG,8580 fluorescence intensity (a.u.)
8,CATACGCACACACCTCTACGCATGCAACACCACTCTCACTCGGAGTCACCTAGTGCAG,8800 fluorescence intensity (a.u.)
9,GCTTAATTTATTTGTTTCCATTTTTATTTTTAATTTTTTTCGGAGTCACCTAGTGCAG,11300 fluorescence intensity (a.u.)
10,GGGTATTGTAGTAACTTCCTGTGCACCATCGGGGTTAAGACGGAGTCACCTAGTGCAG,10500 fluorescence intensity (a.u.)
11,TGCTTGATATCAATCAACCCAGTTCAACTGTTTTTAATGTCGGAGTCACCTAGTGCAG,8390 fluorescence intensity (a.u.)
12,CTAGTTCAGATGCTCGCCACTTTGCCATTTGAGCATTTTTCGGAGTCACCTAGTGCAG,10200 fluorescence intensity (a.u.)
13,TATTTGGTTTTGTAGGGGTTGGTTTGGGAAAATTGGAAAGCGGAGTCACCTAGTGCAG,16400 fluorescence intensity (a.u.)
14,ACATCATGTCTGTGTCACATCCACTTAAAATATCTTATATCGGAGTCACCTAGTGCAG,9450 fluorescence intensity (a.u.)
15,CCGTGTCTTCATCCTTGATCCTCCACACTCTCTTTCCCTTCGGAGTCACCTAGTGCAG,10300 fluorescence intensity (a.u.)
16,TTACCATGCCATATTTGACATTCCAAGCCATTAGCTTCCGCGGAGTCACCTAGTGCAG,9330 fluorescence intensity (a.u.)
17,TCCCTTCCTCGCTTCCACCCAATCTTTCGCTAATTCGTTTCGGAGTCACCTAGTGCAG,9350 fluorescence intensity (a.u.)
18,TTTTGGGGTTGGTCTTGCCTTCCATAGGTATCTCTCCACGCGGAGTCACCTAGTGCAG,8950 fluorescence intensity (a.u.)
19,TTTCCGATTATCCTTCATCGCTAAACTCGACTTGCTTTGACGGAGTCACCTAGTGCAG,10200 fluorescence intensity (a.u.)
20,TGGTTTTGTTGTTTCAGGTTTAGGAATTCAGGTTGATGAACGGAGTCACCTAGTGCAG,10700 fluorescence intensity (a.u.)
21,GCACCGCACATCCATGCTAGGTTTTCATACCGGTCCATAACGGAGTCACCTAGTGCAG,8360 fluorescence intensity (a.u.)

row,Sequence,binding signal
1,TGTTTTTTTACCCGTTTTATTTGCTTTACTCGTGCAAATCCGGAGTCACCTAGTGCAG,12700 fluorescence intensity (a.u.)
2,AAAGAGGAGGGTGTAATTTTTTCTTCTATTTATAATTTCCCGGAGTCACCTAGTGCAG,9930 fluorescence intensity (a.u.)
3,CCCACCGCTCCTCCGCGCCACGCTTCCTCGCCGCGCGCGCCGGAGTCACCTAGTGCAG,8390 fluorescence intensity (a.u.)
4,ACGAATCAGCATATATAGTGGACCATTTCTCAGTTAGCTCCGGAGTCACCTAGTGCAG,8130 fluorescence intensity (a.u.)
5,GACGAAGCCAAGTTGGCCCTGTAGCTGACCCATGCTGTGACGGAGTCACCTAGTGCAG,9030 fluorescence intensity (a.u.)
6,CTCGCATTTCCCAGCTCGGATCCTCTTCTGACTTCTCTCTCGGAGTCACCTAGTGCAG,8710 fluorescence intensity (a.u.)
7,TATTTTTCATTGAAGTTTATTTTTCAGCCTTTGTTTTTAGCGGAGTCACCTAGTGCAG,8350 fluorescence intensity (a.u.)
8,CTCTTTCTTTCTTTCTTGCCGTTTTTCCTCTCTGCTTGTACGGAGTCACCTAGTGCAG,11700 fluorescence intensity (a.u.)
9,ATTTTTCTGGTTATTTATGTACAAGTAGCCTCTATATGTTCGGAGTCACCTAGTGCAG,10300 fluorescence intensity (a.u.)
10,CACATTTTTTCACCTACCACACCTCTACCCTAACACAGCACGGAGTCACCTAGTGCAG,8430 fluorescence intensity (a.u.)
11,AATCCGTACATAATCCTTCAGCCGTATAGCAACTCGTTTCCGGAGTCACCTAGTGCAG,8320 fluorescence intensity (a.u.)
12,TTTCCACACCGTCCTCAGTAAACAACCGATACCATCCTTACGGAGTCACCTAGTGCAG,8430 fluorescence intensity (a.u.)
13,CGTTTTTTTTTTGCAATTTTTTCCATGGCTATTGCTAACCCGGAGTCACCTAGTGCAG,12200 fluorescence intensity (a.u.)
14,CGCACCATCTCTTTTCTCCTCTTCTCTGTTATCATCGTATCGGAGTCACCTAGTGCAG,8860 fluorescence intensity (a.u.)
15,GTTAGATCATTGCACTCCGTCTCTTCGTCTCCTCGAGCGCCGGAGTCACCTAGTGCAG,8230 fluorescence intensity (a.u.)
16,AAATTAATCTATGTTACCAAATTGTTTTTCATATTTTTTTCGGAGTCACCTAGTGCAG,8220 fluorescence intensity (a.u.)
17,ATGGTTGGTTCTTGTGTGTCCCTAAGCGTGAAAAAAATATCGGAGTCACCTAGTGCAG,11600 fluorescence intensity (a.u.)
18,CTCTCCCCTCTCCCCGAGACAACCAATCGCCACCGCACACCGGAGTCACCTAGTGCAG,8290 fluorescence intensity (a.u.)
19,CATAGAAATATCTTCATCTCAGTTCGTTGTTTTTTTTATTCGGAGTCACCTAGTGCAG,10500 fluorescence intensity (a.u.)
20,GAGCACCACGCGAACACTAGCAATAGTTCTTTCTTCTTTTCGGAGTCACCTAGTGCAG,8400 fluorescence intensity (a.u.)
21,ACAAGTTGACTCGTGACGACGGCGACTCCATCCGACCCACCGGAGTCACCTAGTGCAG,8620 fluorescence intensity (a.u.)

row,Sequence,binding signal
1,GAACCTGTCTACATCGGCCGTGTCTCGTGCACTTGCTCTCCGGAGTCACCTAGTGCAG,10700 fluorescence intensity (a.u.)
2,TGTGTTTTTCCTATGCTCTATCCAAACGATTATTCCTACCCGGAGTCACCTAGTGCAG,8650 fluorescence intensity (a.u.)
3,TCCATCATCGTCGTCTCTGTGTGTGTCTGTGTGTGTGTGTCGGAGTCACCTAGTGCAG,17900 fluorescence intensity (a.u.)
4,AATGATGTTGTTGACTTTTAAAATAACGTATGGCCGTTCACGGAGTCACCTAGTGCAG,8770 fluorescence intensity (a.u.)
5,ATGTTCAATTTAATTGCTGTTTGTTACCTTTTGCATGGAGCGGAGTCACCTAGTGCAG,8270 fluorescence intensity (a.u.)
6,TTTAGCTGACCTGGCCTGATGTAGGGTGTTTAATTTTTCTCGGAGTCACCTAGTGCAG,8500 fluorescence intensity (a.u.)
7,ACATTTCCGCATCATAGTTCATCCCGCTCCTCGTCTCCTCCGGAGTCACCTAGTGCAG,10700 fluorescence intensity (a.u.)
8,TCTCCGTCTTTTTTATGGATTTTGAACCTACCATTCTCGTCGGAGTCACCTAGTGCAG,9370 fluorescence intensity (a.u.)
9,TGTTCTCTTCCCCGTGCTGTTCGAATGAGTCTCCGTATTACGGAGTCACCTAGTGCAG,9260 fluorescence intensity (a.u.)
10,CCTCTCCGTCTTCCCAGATCTGCTTCTTGCCCACCATTCCCGGAGTCACCTAGTGCAG,11000 fluorescence intensity (a.u.)
11,TGTTACTCCGTATTCTGTTTCTTTGATTCGGCCTGTCAGCCGGAGTCACCTAGTGCAG,11400 fluorescence intensity (a.u.)
12,ATGCACTTCCACATCTTTTCGCTTATACTTATACTTATCACGGAGTCACCTAGTGCAG,10500 fluorescence intensity (a.u.)
13,ATGTCCAATTAAGATCCACCAGTACCTTTTTAGCGTATTTCGGAGTCACCTAGTGCAG,8890 fluorescence intensity (a.u.)
14,GTCGAGGCGGCGGCGGCGGGGCGCGGAGTGAGGTGGGTGCCGGAGTCACCTAGTGCAG,8640 fluorescence intensity (a.u.)
15,TTTTTTATACTTCTCTCCACTTCGCACCAAACTATTTTATCGGAGTCACCTAGTGCAG,8280 fluorescence intensity (a.u.)
16,TCTCATATTTATATCCCATCAACTTGCAACTCTTCATTCCCGGAGTCACCTAGTGCAG,8850 fluorescence intensity (a.u.)
17,ATACTCGAGATGGGCGCTTGGTACTTGCATGTTTCCATTCCGGAGTCACCTAGTGCAG,8680 fluorescence intensity (a.u.)
18,CTCTGTTTCCTAATCCTCCATTTTTCATCATATTCCTGCACGGAGTCACCTAGTGCAG,8630 fluorescence intensity (a.u.)
19,TTTTCAGTCATCAACTACTAGTACTTTTCAATTTTCCTACCGGAGTCACCTAGTGCAG,9010 fluorescence intensity (a.u.)
20,GCCTTTTATACTCCATATATACTTCTACTCCTACTTCCCTCGGAGTCACCTAGTGCAG,10400 fluorescence intensity (a.u.)
21,CTTCATTGTTAAGTATACTTTCATGTACACATATAGTTTTCGGAGTCACCTAGTGCAG,11100 fluorescence intensity (a.u.)
